# Primary screen of a compound library

Mtb glucose medium: 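Whole-cell growth test on Mycobacterium tuberculosis, read after 3 days in glucose-containing 7H9 medium; the read-out is not stated. Tested at 50 µM. Direction is inferred from retests: higher values go with more growth inhibition. Of about 69,000 compounds tested this way, about 760 (1.1%) reached 50% or more in at least one test.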
Mtb cholesterol medium: 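Phenotypic screen: M. tuberculosis growth, cholesterol and DPPC medium, 4 days; the read-out is not stated. Concentration: 50 µM. Higher reads as more growth inhibition (inferred: compounds with an IC50 in retests scored well above the rest). About 69,000 compounds were tested under these conditions; 0.54% (about 370) showed 50% or more at least once.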

Values are the deposited “Percent Effect”, in %.
The controls that fix the scale are not given in the record; negative values are as filed.
This is an unselected part of the compounds tested.
Two or more numbers in one place are separate tests of the same structure; such repeats can differ widely.

| Compound | Mtb glucose medium | Mtb cholesterol medium |
|---|---|---|
| `CCN(CC1CCCCO1)C(=O)CCNC(=O)c1ccccc1F` (stereo not given) | -27.33 | -29.49 |
| `CCn1ccnc1CN1CCN(CC(O)Cn2cccn2)CC1` (stereo not given) | -11.74 | -8.416 |
| `COCCC(=O)N1CC2(CCN(Cc3ccccc3Cl)CC2)C1.O=C(O)C(F)(F)F` | 3.079 | -13.72 & -11.42 |
| `CCn1cc2c(n1)CN(Cc1nccs1)CC2COCC1CC1.O=C(O)C(F)(F)F` (stereo not given) | 11.29 | 7.19 |
| `Cc1cccc(N2CCN(C(=O)CNCCn3cccn3)CC2)c1` | -47.37 | 3.983 |
| `c1ccc(CCc2n[nH]c(CCN3CCCCC3)n2)cc1` | 8.293 & -2.102 | 17.19 |
| `CNC(=O)C1(c2cnccn2)CCCN1C(=O)c1ccc(OC)cc1` (stereo not given) | 1.012 | -18.03 |
| `CN(C)CCNC(=O)c1cc2n(n1)CCN(C(=O)CC(C)(C)C)C2` | -5.523 | -4.546 & 7.311 |
| `CCn1c(C2CCCN(Cc3ccc(OC)c(C)c3C)C2)nn(C)c1=O` (stereo not given) | 2.535 & 30.42 | 0.409 |
| `CN(C)S(=O)(=O)c1ccc(CNC(=O)c2cn3c(n2)CNCC3)cc1` | -36.37 & -3.085 | -38.49 |
| `O=C(Cc1ccc2c(c1)CCO2)Nc1ccc(-n2cncn2)nc1` | -29.41 | -16.97 |
| `CN1CCCC1CNC(=O)c1nnn(-c2ccc(F)cc2)c1C1CC1` (stereo not given) | -46.37 | 1.803 & -6.122 |
| `O=C(O)C(F)(F)F.[H][C@@]12C[C@@H](c3nc(C)cs3)O[C@]1([H])CN(c1ncc(F)cn1)C2` | 15.44 | 2.96 |
| `Cc1cc(S(=O)(=O)N2CCC(S(C)(=O)=O)CC2)ccc1F` | 12.56 | 6.646 |
| `CC(C)OCCS(=O)(=O)c1ccccc1C#N` | 6.577 & -3.009 | 4.996 |
| `CC(C)N(Cc1ccc(C#N)cc1)C(=O)NCCNc1ncccn1` | -28.79 | -16.54 |
| `Oc1ccc(C2Nc3ccccc3C3=NCCCN32)cc1` (stereo not given) | 1.294 | -6.227 |
| `Cc1ncsc1CNC(=O)N(Cc1ccccc1)CC(C)(C)O` | 0.9562 & 4.289 | -8.519 |
| `COc1ccc(CN(C)Cc2c(C)noc2C)c(Cl)c1OC` | -7.436 | 1.608 |
| `CC(C)(C(=O)NCc1n[nH]c(=O)[nH]1)c1ccc(F)cc1` | -42.93 | -15.91 |
| `CCc1nnc2n1CCN(Cc1ccc3c(c1)OCCO3)C2` | -31.57 | -13.17 |
| `O=C1OCCN1Cc1cc(C(F)(F)F)ccc1F` | -9.958 | -17.4 |
| `O=C(C1CCCO1)N1CCC(c2nc(-c3ccccc3)n[nH]2)CC1` (stereo not given) | -3.799 & -12.49 | -10.81 |
| `Cc1ccc2nc(CNCCCOc3ccccc3)cc(O)c2c1` | -38.27 & -1.647 | -2.617 |
| `CCn1cc(C(=O)N2CCOCC2)cn1` | 6.366 | 17.38 |
| `CN1CCN(C[C@@H]2CN(C(=O)c3ccccc3C#N)C[C@@H]2CO)CC1` | -11.68 | 6.072 |
| `CNC(=O)Cc1coc(-c2ccc(F)cc2)n1` | 3.165 & 7.778 | 16.38 |
| `CC(C)CC(=O)NCCn1nc(C2CCNC2)c2cccnc21.Cl` (stereo not given) | 2.076 | -6.907 |
| `CC(Cc1ccco1)NC(=O)Nc1ccc(N2CCOCC2)nc1` (stereo not given) | -6.326 | -1.065 |
| `COC(=O)c1cccc(C(=O)N2CCN(C(=O)N(C)C)CC2(C)C)c1` | 12.69 | 9.043 |
| `O=C(NCCNc1ncccn1)c1cnc(-c2ccccc2)nc1` | 19 & 4.938 | 6.127 |
| `CC(Cn1ccnc1)NC(=O)Cc1ccc2c(c1)OCCO2` (stereo not given) | 5.778 | -15.8 |
| `O=C(O)C(F)(F)F.[H][C@]12CCC[C@@H](CN(C)C)[C@@]1([H])CN(c1cccnc1)C2` | 0.301 | 2.371 |
| `CN(C)c1nc2c(c(=O)[nH]1)Cc1ccccc1OC2` | -6.257 & 2.312 | -19.26 |
| `O=C(CCC(=O)Nc1nnc(C(F)(F)F)s1)NCC1CCCO1` (stereo not given) | -21.49 | -27.99 |
| `Cc1cc(NC(=O)Cn2ncc(Br)c2C)no1` | -5.828 | -7.07 |
| `COc1cc(C(=O)N2CC[C@@H](NC(=O)c3ccccn3)[C@H](O)C2)ccn1` | -30.51 | 3.396 & 0.1737 |
| `CN(C)[C@@H]1C[C@@H](CO)N(C(=O)Nc2cccc(F)c2F)C1` | -32.25 | -22.34 |
| `[H][C@]12CC[C@]([H])(CN(S(=O)(=O)c3cccc(Cl)c3)C1)N(CCC)C2=O` | -13.45 | -9.576 |
| `Cn1ncc2c1C(COCC1CC1)CN(Cc1ccsc1)C2` (stereo not given) | 69.72 | 11.23 |
| `Cc1ccc(C(CNCc2ncc[nH]2)N2CCOCC2)s1` (stereo not given) | -2.298 & -13.67 | -1.708 |
| `Cc1ccccc1C(=O)N1CCCn2cnc(CN3CCCC3=O)c2C1` | -5.908 | 4.688 |
| `[H][C@]12CCN(C(=O)NC)CC[C@@]1([H])S(=O)(=O)N(Cc1ccccc1)C2` | -3.361 | -3.601 |
| `Cc1ncc(CN2CCC(n3cc(-c4ccc(F)cc4)nn3)CC2)cn1` | 41.24 | 11.39 |
| `CC(NCCn1cccn1)c1ccc(F)cc1F` (stereo not given) | -18.96 | 0.8 |
| `COC(=O)C1CCN(CC2(c3ccc(C)cn3)CCNCC2)CC1` | -9.269 | 7.203 |
| `Cn1cccc1C(=O)N1CCCCC1c1[nH]ncc1S(C)(=O)=O` (stereo not given) | 23.33 | 3.492 |
| `CCN1CCCCC1C(=O)Nc1cccc(-c2nnc[nH]2)c1` (stereo not given) | 3.04 | 6.677 |
| `[H][C@]12CN(C(=O)c3ccnnc3)C[C@@]1([H])OCCN(S(C)(=O)=O)C2` | -8.834 | -10.66 |
| `CCNc1cc2c(nn1)CCN(C(=O)Cc1c(C)noc1C)C2` | 5.52 | -14.04 |
| `C[C@@H]1CN(Cc2ccccc2)CCN1C(=O)NCc1nccs1` | 7.01 | 7.607 |
| `COCC(O)CNC(=O)c1cc(COc2ccc3c(c2)CCCC3)on1` (stereo not given) | 20.94 | 6.919 |
| `O=C(O)C(F)(F)F.[H][C@@]12CN(Cc3csnn3)C[C@]1([H])OCCN2c1ncccn1` | 25.42 | 8.981 |
| `CC(=O)c1ccc(C(=O)NCc2ccnc(N(C)C)n2)cc1` | 17.45 | -0.8325 |
| `COCC1CCN(S(=O)(=O)NCC2COc3ccccc3C2)CC1` (stereo not given) | -10.13 | -10.22 |
| `CCCS(=O)(=O)NCc1cccnc1Oc1ccc(C)c(F)c1F` | 20.92 | 2.993 & 4.147 |
| `[H][C@]12CC[C@]([H])(CN(c3cc(OC)ncn3)C1)N(CC1CCC1)C2=O` | -16.51 | -2.539 |
| `COc1cccc(NC(=O)Cn2c(=O)nc(N)c3cc(C)sc32)c1` | 3.761 | -4.452 |
| `CN1CCN(Cc2cnc3n2CCN(C(=O)N2CCCC2)C3)CC1` | 18.12 | -1.587 |
| `[H][C@]12CCN(S(=O)(=O)c3cccc(C)c3)[C@@]1([H])CC[C@@H](COC)O2` | 0.8612 | -20.71 |
| `CC(=O)C1(c2ccccc2)CCN(C(=O)c2ccc3nnnn3c2)CC1` | -16.39 | -16.43 |
| `CCOc1ncccc1C(=O)NC1CC(=O)N(CC(F)(F)F)C1` (stereo not given) | -36.79 & 10.3 | -13.18 |
| `COCCN(C)C(=O)c1nc2c(s1)CCCN2c1ccc(C)nn1` | 10.88 | -3.059 |
| `O=C(NCC1SCCc2ccccc21)c1cscn1` (stereo not given) | 33.38 | 17.68 |
| `Cc1ccc(CN2CCN(C(=O)c3ccccc3O)C(C)C2=O)cc1` (stereo not given) | 2.881 & -10.03 | 26.13 |
| `CN1CCN(S(=O)(=O)c2cccc(F)c2)c2cnccc21` | 0.8785 & -25.9 | -3.453 |

Some entries from above, unchanged:

Compound	Mtb glucose medium	Mtb cholesterol medium
CCn1ccnc1CN1CCN(CC(O)Cn2cccn2)CC1 (stereo not given)	-11.74	-8.416
O=C(Cc1ccc2c(c1)CCO2)Nc1ccc(-n2cncn2)nc1	-29.41	-16.97
CCNc1cc2c(nn1)CCN(C(=O)Cc1c(C)noc1C)C2	5.52	-14.04
CCn1cc2c(n1)CN(Cc1nccs1)CC2COCC1CC1.O=C(O)C(F)(F)F (stereo not given)	11.29	7.19
O=C(O)C(F)(F)F.[H][C@]12CCC[C@@H](CN(C)C)[C@@]1([H])CN(c1cccnc1)C2	0.301	2.371
Cn1cccc1C(=O)N1CCCCC1c1[nH]ncc1S(C)(=O)=O (stereo not given)	23.33	3.492

Source: ChEMBL document CHEMBL3988442, “University of Dundee, Small-Polar-MMV Screening Library” (2021).